This note sets out measurements from article PMC5044832.

Protein sequences, listed by entry. Tags and fused reporters are not part of them.
UniProt F5HCV3: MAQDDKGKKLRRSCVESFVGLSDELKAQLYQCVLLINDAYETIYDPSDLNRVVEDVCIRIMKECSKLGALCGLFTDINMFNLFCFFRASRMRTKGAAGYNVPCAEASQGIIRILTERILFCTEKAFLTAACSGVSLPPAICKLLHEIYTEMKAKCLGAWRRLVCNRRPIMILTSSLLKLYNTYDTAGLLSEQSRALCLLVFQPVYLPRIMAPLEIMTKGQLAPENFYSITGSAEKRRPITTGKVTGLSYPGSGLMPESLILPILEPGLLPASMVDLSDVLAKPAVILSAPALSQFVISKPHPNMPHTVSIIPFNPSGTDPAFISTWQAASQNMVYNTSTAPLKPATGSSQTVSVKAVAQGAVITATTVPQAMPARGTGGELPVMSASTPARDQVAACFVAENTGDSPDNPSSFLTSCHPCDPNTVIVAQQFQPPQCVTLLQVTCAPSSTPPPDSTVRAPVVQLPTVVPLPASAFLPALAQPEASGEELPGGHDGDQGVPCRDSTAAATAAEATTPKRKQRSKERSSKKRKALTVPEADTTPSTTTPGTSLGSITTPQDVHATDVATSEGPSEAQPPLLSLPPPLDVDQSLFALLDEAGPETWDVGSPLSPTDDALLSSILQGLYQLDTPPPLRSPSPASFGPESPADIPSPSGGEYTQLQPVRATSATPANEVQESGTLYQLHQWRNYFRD

This test has as its target replication and transcription activator (RTA) (Kaposi's sarcoma-associated herpesvirus (KSHV)) (UniProt F5HCV3). Put plainly: co-IP.

No constants are given. Whether binding was seen depends on the method and setting. In cells and extracts the contact can be indirect. Tags and fused reporters may be left off the sequences shown.

B1: AT-rich interacting domain containing 3B (ARID3B), C-terminally FLAG-tagged (protein, UniProt Q8IVW6 1-561)
chain: MEPLQQQQQQQQQQQKQPHLAPLQMDAREKQGQQMREAQFLYAQKLVTQPTLLSATAGRPSGSTPLGPLARVPPTAAVAQVFERGNMNSEPEEEDGGLEDEDGDDEVAEVAEKETQAASKYFHVQKVARQDPRVAPMSNLLPAPGLPPHGQQAKEDHTKDASKASPSVSTAGQPNWNLDEQLKQNGGLAWSDDADGGRGREISRDFAKLYELDGDPERKEFLDDLFVFMQKRGTPINRIPIMAKQILDLYMLYKLVTEKGGLVEIINKKIWREITKGLNLPTSITSAAFTLRTQYMKYLYAYECEKKALSSPAELQAAIDGNRREGRRPSYSSSLFGYSPAAATAAAAAGAPALLSPPKIRFPILGLGSSSGTNTSSPRISPATTLRKGDGAPVTTVPVPNRLAVPVTLASQQAGTRTAALEQLRERLESGEPAEKKASRLSEEEQRLVQQAFQRNFFSMARQLPMKIRINGRAEDRAEASAAALNLTTSSIGSINMSVDIDGTTYAGVLFAQKPVVHLITGSAPQSLGSSASSSSSSHCSPSPTSSRGTPSAEPSTSWSL
Turning to B1, the binding result is listed as “no binding”.
